Laboratory results from PMC6499541.

By UniProt entry, the sequences of proteins in these tests, tags left out. Where a name states a change or a piece, a line headed by the entry shows the natural chain unless it says otherwise.
UniProt Q3UH93: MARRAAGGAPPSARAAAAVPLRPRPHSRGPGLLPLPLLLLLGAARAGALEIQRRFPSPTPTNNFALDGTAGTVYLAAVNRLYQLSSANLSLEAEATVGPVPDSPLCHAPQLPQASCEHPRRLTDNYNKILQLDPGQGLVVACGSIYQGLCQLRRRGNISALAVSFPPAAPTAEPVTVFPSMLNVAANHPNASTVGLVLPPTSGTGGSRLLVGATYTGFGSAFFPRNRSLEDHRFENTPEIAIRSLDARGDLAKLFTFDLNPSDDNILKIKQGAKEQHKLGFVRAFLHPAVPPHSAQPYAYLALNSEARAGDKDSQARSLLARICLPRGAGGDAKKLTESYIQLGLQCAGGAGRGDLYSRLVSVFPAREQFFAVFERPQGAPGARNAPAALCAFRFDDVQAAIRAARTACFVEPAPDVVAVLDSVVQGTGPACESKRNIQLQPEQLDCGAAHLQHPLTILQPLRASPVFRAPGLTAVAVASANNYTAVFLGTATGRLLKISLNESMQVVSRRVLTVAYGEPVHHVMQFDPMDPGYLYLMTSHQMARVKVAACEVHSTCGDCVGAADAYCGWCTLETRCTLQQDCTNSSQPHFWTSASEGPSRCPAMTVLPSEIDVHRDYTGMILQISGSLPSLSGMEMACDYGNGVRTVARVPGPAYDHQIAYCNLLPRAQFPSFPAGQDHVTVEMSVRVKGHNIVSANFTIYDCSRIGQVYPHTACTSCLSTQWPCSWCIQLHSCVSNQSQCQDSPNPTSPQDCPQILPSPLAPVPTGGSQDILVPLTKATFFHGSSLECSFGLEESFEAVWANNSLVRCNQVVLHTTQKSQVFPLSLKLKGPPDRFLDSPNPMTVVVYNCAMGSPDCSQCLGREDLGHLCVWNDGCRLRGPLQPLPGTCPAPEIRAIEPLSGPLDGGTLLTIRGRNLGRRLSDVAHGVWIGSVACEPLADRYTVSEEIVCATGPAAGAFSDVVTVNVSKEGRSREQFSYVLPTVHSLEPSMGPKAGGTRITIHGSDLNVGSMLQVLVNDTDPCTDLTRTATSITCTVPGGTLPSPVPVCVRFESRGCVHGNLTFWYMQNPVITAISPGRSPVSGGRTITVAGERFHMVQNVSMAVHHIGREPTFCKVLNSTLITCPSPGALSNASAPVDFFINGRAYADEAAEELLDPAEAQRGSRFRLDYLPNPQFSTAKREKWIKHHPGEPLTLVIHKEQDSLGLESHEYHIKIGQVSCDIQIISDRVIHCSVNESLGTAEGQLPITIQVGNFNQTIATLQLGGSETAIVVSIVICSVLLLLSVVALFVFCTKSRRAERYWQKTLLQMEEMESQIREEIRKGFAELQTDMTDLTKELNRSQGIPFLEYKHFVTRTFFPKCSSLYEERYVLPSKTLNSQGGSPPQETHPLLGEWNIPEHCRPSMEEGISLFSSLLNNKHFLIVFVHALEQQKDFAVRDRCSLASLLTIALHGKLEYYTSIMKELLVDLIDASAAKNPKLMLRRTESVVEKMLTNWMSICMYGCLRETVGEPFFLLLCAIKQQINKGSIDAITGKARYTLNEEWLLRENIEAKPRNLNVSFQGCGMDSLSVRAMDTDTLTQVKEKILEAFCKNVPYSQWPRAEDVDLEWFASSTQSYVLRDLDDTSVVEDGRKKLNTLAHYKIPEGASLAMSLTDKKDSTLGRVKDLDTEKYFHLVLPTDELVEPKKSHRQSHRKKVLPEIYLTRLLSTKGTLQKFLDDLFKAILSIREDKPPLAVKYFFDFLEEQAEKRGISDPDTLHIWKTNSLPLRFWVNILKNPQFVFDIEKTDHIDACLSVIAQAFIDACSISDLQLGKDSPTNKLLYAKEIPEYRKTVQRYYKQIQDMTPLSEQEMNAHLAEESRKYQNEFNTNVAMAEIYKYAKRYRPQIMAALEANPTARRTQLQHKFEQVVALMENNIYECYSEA

Legend:
Test in all cases: co-IP; COS-7 cells co-transfected with V5-tagged mPLXND1 tails and FLAG-tagged mGIPC1 forms; lysis in 50 mM Tris pH 7.5, 5 mM EDTA, 150 mM NaCl, 1% Triton X-100; anti-FLAG immunoprecipitation overnight at 4°C with Protein A/G agarose; V5 co-immunoprecipitates detected by Western blot
[1] = biological target: FLAG-tagged full murine GIPC1 (FLAG-mGIPC1^WT) (mouse) (UniProt Q9Z0G0)
[2] = biological target: FLAG-tagged GH1 domain of murine GIPC1 (FLAG-mGIPC1^GH1) (mouse) (UniProt Q9Z0G0)
[3] = biological target: T1, FLAG-tagged PDZ domain of murine GIPC1 (FLAG-mGIPC1^PDZ) (mouse) (UniProt Q9Z0G0)
T1 sequence: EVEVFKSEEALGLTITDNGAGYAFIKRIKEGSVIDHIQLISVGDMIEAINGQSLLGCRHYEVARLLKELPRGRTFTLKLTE

Measured: binding

V5-tagged cytosolic tail of wild-type murine PLXND1 (V5-C-mPLXND1^WT) (from UniProt Q3UH93) (domain or fragment)
binds: all assays above

Results are given in words; binding and its absence hold for the method and conditions named. Binding seen in cells or lysates may run through a third protein. Binding calls can cover weak binding; strength is not graded here. For part of these data: Where a sequence is shown, tags or fusion partners need not be part of it.
